Test results from the supplement of paper PMC4604168 (melanoma cell lines).
This is one part of the list. Many values rest on one well or one pass, so single values are uncertain.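 Imaging used 1,536-well plates; nuclei positive for cleaved PARP by antibody were divided by total DNA-stained nuclei to yield the apoptosis fraction. Doses for screening kept most cells viable, and cell lines differ markedly in resting and induced cleaved-PARP levels.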

What follows are compounds tested on WM115 (assay: cleaved PARP positive nuclei fraction relative to DMSO control; melanoma cells; higher = more apoptosis). Conditions: library dose: low library concentration; 72 h.

| SMILES | cleaved PARP positive nuclei fraction [%] |
| --- | --- |
| C[C@@H](Oc1cc(-c2cnn(C3CCNCC3)c2)cnc1N)c1c(Cl)ccc(F)c1Cl [Crizotinib] + C[As](C)SC[C@H](NC(=O)CC[C@H](N)C(=O)O)C(=O)NCC(=O)O [Darinaparsin] (first compound 0.2 µM, partner dose 0.4 µM) | 72.2 |
| C[C@]12O[C@H](C[C@]1(O)CO)n1c3ccccc3c3c4c(c5c6ccccc6n2c5c31)CNC4=O [Lestaurtinib] + C[C@]1(c2nc3c(C(N)=O)cccc3[nH]2)CCCN1 [Veliparib] (first compound 0.004 µM, partner dose 1.4 µM) | 100 |
| CS(=O)(=O)CCNCc1ccc(-c2ccc3ncnc(Nc4ccc(OCc5cccc(F)c5)c(Cl)c4)c3c2)o1 [lapatinib] + Cc1cc(SCc2sc(-c3ccc(C(F)(F)F)c(F)c3)nc2C)ccc1OCC(=O)O [GW0742] (first compound 0.8 µM, partner dose 2 µM) | 120 |
| C[C@]12O[C@H](C[C@]1(O)CO)n1c3ccccc3c3c4c(c5c6ccccc6n2c5c31)CNC4=O [Lestaurtinib] + Nc1ccn([C@@H]2O[C@H](CO)[C@@H](O)C2(F)F)c(=O)n1 [gemcitabine] (first compound 0.004 µM, partner dose 0.0004 µM) | 122 |

What follows are compounds tested on WM1716 in the same assay as above. Conditions: library dose: low library concentration; 72 h.

| SMILES | cleaved PARP positive nuclei fraction [%] |
| --- | --- |
| C[C@]12O[C@H](C[C@]1(O)CO)n1c3ccccc3c3c4c(c5c6ccccc6n2c5c31)CNC4=O [Lestaurtinib] + O=C(CCCCCCC(=O)Nc1ccccc1)NO [vorinostat] (first compound 0.004 µM, partner dose 0.08 µM) | 116 |
| CCCCCCCCc1ccc(CCC(N)(CO)CO)cc1 [fingolimod] + N.N.[Cl][Pt][Cl] [cisplatin] (first compound 2 µM, partner dose 1.6 µM) | 42.9 |
| Cc1ccc(Nc2nccc(N(C)c3ccc4c(C)n(C)nc4c3)n2)cc1S(N)(=O)=O [Pazopanib] + C/C(O)=C(\C#N)C(=O)Nc1cc(Br)ccc1Br [LFM-A13] (first compound 0.4 µM, partner dose 2 µM) | 200 |
| C[C@]12O[C@H](C[C@]1(O)CO)n1c3ccccc3c3c4c(c5c6ccccc6n2c5c31)CNC4=O [Lestaurtinib] + O=C(Nc1cccc(Cl)c1)Nc1ncc(CCNc2ncnc3ccsc23)s1 [SNS314] (first compound 0.004 µM, partner dose 0.0008 µM) | 145 |
| C[C@]12O[C@H](C[C@]1(O)CO)n1c3ccccc3c3c4c(c5c6ccccc6n2c5c31)CNC4=O [Lestaurtinib] + O=C(Oc1ccc([N+](=O)[O-])cc1)N1CCC(C(O)(c2ccc3c(c2)OCO3)c2ccc3c(c2)OCO3)CC1 [JZL184] (first compound 0.004 µM, partner dose 1 µM) | 74.6 |
| Cn1cc(C2=C(c3cn(C4CCN(Cc5ccccn5)CC4)c4ccccc34)C(=O)NC2=O)c2ccccc21 [Enzastaurin] + CC(=O)c1c(C)c2cnc(Nc3ccc(N4CCNCC4)cn3)nc2n(C2CCCC2)c1=O [palbociclib] (first compound 0.8 µM, partner dose 0.04 µM) | 45.7 |
| C[As](C)SC[C@H](NC(=O)CC[C@H](N)C(=O)O)C(=O)NCC(=O)O [Darinaparsin] + Cn1nnc2c(C(N)=O)ncn2c1=O [temozolomide] (first compound 0.4 µM, partner dose 2 µM) | 59.8 |
| Cn1c(=O)n(-c2ccc(C(C)(C)C#N)cc2)c2c3cc(-c4cnc5ccccc5c4)ccc3ncc21 + C/C(O)=C(\C#N)C(=O)Nc1cc(Br)ccc1Br [LFM-A13] (first compound 0.004 µM, partner dose 2 µM) | 184 |
| CC(C)(C)c1cnc(CSc2cnc(NC(=O)C3CCNCC3)s2)o1 + O=C(Oc1ccc([N+](=O)[O-])cc1)N1CCC(C(O)(c2ccc3c(c2)OCO3)c2ccc3c(c2)OCO3)CC1 [JZL184] (first compound 0.01 µM, partner dose 1 µM) | 79.4 |
| N.N.[Cl][Pt][Cl] [cisplatin] + COc1ccc2c(c1)CCC1C2CCC2(C)C(NCCCCCCN3C(=O)C=CC3=O)CCC12 [U73122] (first compound 1.6 µM, partner dose 0.4 µM) | 61.9 |

Already shown: an excerpt of the list.

| SMILES | cleaved PARP positive nuclei fraction [%] |
| --- | --- |
| C[C@]12O[C@H](C[C@]1(O)CO)n1c3ccccc3c3c4c(c5c6ccccc6n2c5c31)CNC4=O [Lestaurtinib] + O=C(Nc1cccc(Cl)c1)Nc1ncc(CCNc2ncnc3ccsc23)s1 [SNS314] (first compound 0.004 µM, partner dose 0.0008 µM) | 145 |
| C[C@]12O[C@H](C[C@]1(O)CO)n1c3ccccc3c3c4c(c5c6ccccc6n2c5c31)CNC4=O [Lestaurtinib] + O=C(Oc1ccc([N+](=O)[O-])cc1)N1CCC(C(O)(c2ccc3c(c2)OCO3)c2ccc3c(c2)OCO3)CC1 [JZL184] (first compound 0.004 µM, partner dose 1 µM) | 74.6 |
| Cn1cc(C2=C(c3cn(C4CCN(Cc5ccccn5)CC4)c4ccccc34)C(=O)NC2=O)c2ccccc21 [Enzastaurin] + CC(=O)c1c(C)c2cnc(Nc3ccc(N4CCNCC4)cn3)nc2n(C2CCCC2)c1=O [palbociclib] (first compound 0.8 µM, partner dose 0.04 µM) | 45.7 |
| C[As](C)SC[C@H](NC(=O)CC[C@H](N)C(=O)O)C(=O)NCC(=O)O [Darinaparsin] + Cn1nnc2c(C(N)=O)ncn2c1=O [temozolomide] (first compound 0.4 µM, partner dose 2 µM) | 59.8 |
